Experimental data reported in paper PMC10127582.

Biological target: T1, BODIPY-PodJ_(CC4-6) (C. crescentus) (UniProt Q9ZG88)
T1 sequence (chain, BODIPY FL N-(2-aminoethyl)maleimide on the cysteine added at the N terminus): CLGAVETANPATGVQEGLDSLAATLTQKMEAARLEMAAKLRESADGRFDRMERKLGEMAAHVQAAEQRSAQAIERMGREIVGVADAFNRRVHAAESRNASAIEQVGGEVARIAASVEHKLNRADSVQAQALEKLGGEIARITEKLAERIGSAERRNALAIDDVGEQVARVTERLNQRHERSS
Experiment: fluorescence polarisation; 100 nM BODIPY-labelled PodJ variant mixed with PopZ (0 to 16 μM in the methods; 16 μM in the results; 10 μM in the legend), room temperature, 45 min (methods) or 2 h (results); excitation 470 nm, emission 530 nm; bovine serum albumin as negative control; both purified

How did the binding turn out when PopZ (C. crescentus) was run?
The binding was “binds”.

These are yes or no findings as the source states them, for the method shown. Binding can be weak; no strength is given.
